The subject of the series is MR(FKBP)N del676-685,Rad50,split,chain (human). Nature of the series: EMSA. The note with it: 0.5 mM AMP-PNP, 5 mM MgCl2, Nbs1 present, lanes 17-18 with 200 nM AP20187, EMSA (Fig. 6A): 10 nM DNA, 25 mM MOPS pH 7.0, 20 mM Tris pH 8.0, 5 mM MgCl2, 8% glycerol, 80 mM NaCl, 2 mM DTT, temperature not stated, recombinant protein, protein details: FKBP12 derivative fused to Rad50 1-675, label: Cy5 at 3' end of TP2109. In general terms: Mobility shift assays separate free from complexed probe on a gel.

Construct, isoform or probe ends are uncertain for at least one entry.

Regarding “CTTGCATGCCTCAGCTATTCCGGATTATTCATACCGTCCCA / TGGGACGGTATGAATAATCCGGAATAGCTGAGGCATGCAAGTCTA [TP2151/TP2109]”, the binding result was “binds”.
